# Experimental data as given in PubChem BioAssay AID1347423 (Functional Genomics Laboratory (NCATS/FGL), 2020).
# About 210 (0.4%) of roughly 52,000 sequences were called active.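 Rule for the calls: active = gene whose silencing raises cell survival under the drug, median off-target-corrected z-score across its silencing RNAs 2 or more; inactive = the rest.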 This is one part of the list.
# Test: Resistance to Poly (ADP-Ribose) Polymerase inhibitor: Gene Identification via Genome-wide siRNA Screen
# Conditions: mouse BRCA2 R2336H ES cells, olaparib, CellTiter-Glo viability; active compounds read high
# Procedure, shortened: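 Genome-wide siRNA screen (3 siRNAs/gene, 20 nM) in mouse ES cells carrying hypomorphic BRCA2 R2336H; olaparib 500 nM added 48 h post-transfection, CellTiter-Glo viability 72 h later. Normalized to plate-median negative control; MAD z-scores, gene median, seed-adjusted.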
row,Sequence,z-score
1,GCUUGAAUGUUAAAGCCAATT against Fbxo34,inactive: -1.49
2,GGUGGAGAUUAUUCAUGUUTT against Dpp8,inactive: 0.565
3,CCUCGGCGAGAUAUUGUGUTT against Gal3st1,inactive: 0.152
4,GGACUUGAUGACAGUGAAUTT against 2610019A05Rik,inactive: -1.85
5,GGGAGCAAAGAGGAACAGCTT against Ttc11,inactive: 2.32
6,GCAGCUUGUGCAUAUUUGATT against Gm433,inactive: -0.321
7,GGAAAAGCUCAAUGUCCUCTT against Tex13,inactive: 0.051
8,GGGAAAGGGCAUUUUCUUUTT against Znrf1,inactive: 0.879
9,GGAGAGUGAUGAACAGAUGTT against Pctp,inactive: -1.27
10,AUCCCAAAGUUCGUUGUUATT against Olfr307,inactive: 0.474
11,CCCAUUUAUUCUCCUUUAUTT against Smurf1,inactive: -1.22
12,CGAUGAUAAAACGAACAAGTT against 4833424O15Rik,inactive: -1.35
13,GCUACGAAUACAUGCGACATT against Plekhj1,inactive: 0.752
14,CGUACAACAACUAACUUUATT against Ube2v2,inactive: 1.07
15,GGUGGGAUUGUUCUUAAAUTT against Drap1,inactive: 0.656
16,GGAACAAAGAAAUGCAAUATT against Ncr1,inactive: 0.348
17,GGAGAAAUGGAUCACAUUGTT against H2afx,inactive: -1.36
18,GGAUUUCGAGAACAACCUCTT against Daf1,inactive: -0.275
19,GGCUGAUCGACUUAGAGCUTT against Pkp3,inactive: 0.119
20,GGCCUUUGUUCAGUCCUCCTT against Zfp371,inactive: 0.816
21,GGACAAUUCCAUGCUUCCCTT against Il24,inactive: 0.803
22,CCAGUAUGAGAACUACGAUTT against Loxl1,inactive: 1.13
23,GGAUAGUCAUCAACAGAGCTT against Psma7,inactive: 3.54
24,GGACUUGGAGCUGAAAUUGTT against Uble1a,inactive: -1.55
25,GGAUGAACCAAACCAAUAATT against 4933434I20Rik,inactive: -0.37
26,GGUGGAUUUGACUAUGCCCTT against Ptprv,inactive: -0.0396
27,GGGAAUUCAUUGAGAAAUATT against Anxa6,inactive: 0.0236

# Reformatted: results already given
row | Sequence | z-score
6 | GCAGCUUGUGCAUAUUUGATT against Gm433 | inactive: -0.321
7 | GGAAAAGCUCAAUGUCCUCTT against Tex13 | inactive: 0.051
8 | GGGAAAGGGCAUUUUCUUUTT against Znrf1 | inactive: 0.879
9 | GGAGAGUGAUGAACAGAUGTT against Pctp | inactive: -1.27

# Later entries.

row,Sequence,z-score
1,GGCGGAGAGGAAAUCUAUGTT against Mycs,inactive: 0.0986
2,GGACCAGACGAACAGUGAUTT against Surf2,inactive: 0.102
3,AGGCCUUCAAUAUCCCAUCTT against Zfp457,inactive: 0.943
4,GGAGGAAAUUAUAAACAAGTT against Ifit1,inactive: 1.03
5,AUGUUUGAGAGCGACUUUATT against LOC432552,inactive: 0.157
6,CCUACUGACGGGAUGAAGUTT against BC037135,inactive: -0.813
7,GGAUGAGGGAACGUACAUUTT against Il18r1,inactive: 0.361
8,GUCAAAACACUCACGUACCTT against Mustn1,inactive: 0.667
9,GGAUGUGGACUCAAAGAAATT against 1110001E17Rik,active: 1.9
10,GGACCAUCUCUUUCAUUGCTT against Olfr1125,inactive: 0.456
11,CCAUAUCUCAUCCUACAGCTT against Tnk1,inactive: -0.292
12,GGUUGGUCAGAUGAAGGGUTT against Gpr113,inactive: -0.781
13,CCUACUUACUCCUGUAUAATT against Adam3,inactive: -1.13
14,GCCGAAGUAGCCAAAGCUATT against Cyln2,inactive: -0.151
15,GGCUCUAAAUUUUUUGUUCTT against 1110021N07Rik,inactive: -0.184
16,GGAUACAAUCAUCGCCAUCTT against Olfr101,inactive: 1.1
17,GGCCAACAAGGAAAACAUCTT against Bcas2,inactive: 0.85
18,GGGAUGAUUCAAUGGAUAATT against Tbx22,inactive: -0.46
19,GGUAUAAAUUUUCUCAGCUTT against Sntg1,inactive: 1.12
20,GCAAAUUUUAUCAACCGCATT against Mical3,inactive: -0.312
21,GGAAAUCCUUACGAUGCUGTT against 2410022L05Rik,inactive: -0.903
22,GGUAGAGAUGUCUAAAGAUTT against Galnt9,inactive: 0.029
23,GGAGCAGGAUAUUGAGACCTT against Ndrg1,inactive: 1.25
24,GGAGAAAGUGGACAGGGCUTT against Jph4,inactive: -1.17
25,GGCUCUUGCUUUAGUAUUCTT against Ly9,inactive: -0.297
26,GCAGUUUUAUAACAGCCCUTT against Bcs1l,inactive: 0.87
